No constants are given. Whether binding was seen depends on the method and setting.
Target: T1, usherin protein (mouse, native, from tissue extracts) (mouse) (UniProt Q2QI47)
T1 sequence (looked up): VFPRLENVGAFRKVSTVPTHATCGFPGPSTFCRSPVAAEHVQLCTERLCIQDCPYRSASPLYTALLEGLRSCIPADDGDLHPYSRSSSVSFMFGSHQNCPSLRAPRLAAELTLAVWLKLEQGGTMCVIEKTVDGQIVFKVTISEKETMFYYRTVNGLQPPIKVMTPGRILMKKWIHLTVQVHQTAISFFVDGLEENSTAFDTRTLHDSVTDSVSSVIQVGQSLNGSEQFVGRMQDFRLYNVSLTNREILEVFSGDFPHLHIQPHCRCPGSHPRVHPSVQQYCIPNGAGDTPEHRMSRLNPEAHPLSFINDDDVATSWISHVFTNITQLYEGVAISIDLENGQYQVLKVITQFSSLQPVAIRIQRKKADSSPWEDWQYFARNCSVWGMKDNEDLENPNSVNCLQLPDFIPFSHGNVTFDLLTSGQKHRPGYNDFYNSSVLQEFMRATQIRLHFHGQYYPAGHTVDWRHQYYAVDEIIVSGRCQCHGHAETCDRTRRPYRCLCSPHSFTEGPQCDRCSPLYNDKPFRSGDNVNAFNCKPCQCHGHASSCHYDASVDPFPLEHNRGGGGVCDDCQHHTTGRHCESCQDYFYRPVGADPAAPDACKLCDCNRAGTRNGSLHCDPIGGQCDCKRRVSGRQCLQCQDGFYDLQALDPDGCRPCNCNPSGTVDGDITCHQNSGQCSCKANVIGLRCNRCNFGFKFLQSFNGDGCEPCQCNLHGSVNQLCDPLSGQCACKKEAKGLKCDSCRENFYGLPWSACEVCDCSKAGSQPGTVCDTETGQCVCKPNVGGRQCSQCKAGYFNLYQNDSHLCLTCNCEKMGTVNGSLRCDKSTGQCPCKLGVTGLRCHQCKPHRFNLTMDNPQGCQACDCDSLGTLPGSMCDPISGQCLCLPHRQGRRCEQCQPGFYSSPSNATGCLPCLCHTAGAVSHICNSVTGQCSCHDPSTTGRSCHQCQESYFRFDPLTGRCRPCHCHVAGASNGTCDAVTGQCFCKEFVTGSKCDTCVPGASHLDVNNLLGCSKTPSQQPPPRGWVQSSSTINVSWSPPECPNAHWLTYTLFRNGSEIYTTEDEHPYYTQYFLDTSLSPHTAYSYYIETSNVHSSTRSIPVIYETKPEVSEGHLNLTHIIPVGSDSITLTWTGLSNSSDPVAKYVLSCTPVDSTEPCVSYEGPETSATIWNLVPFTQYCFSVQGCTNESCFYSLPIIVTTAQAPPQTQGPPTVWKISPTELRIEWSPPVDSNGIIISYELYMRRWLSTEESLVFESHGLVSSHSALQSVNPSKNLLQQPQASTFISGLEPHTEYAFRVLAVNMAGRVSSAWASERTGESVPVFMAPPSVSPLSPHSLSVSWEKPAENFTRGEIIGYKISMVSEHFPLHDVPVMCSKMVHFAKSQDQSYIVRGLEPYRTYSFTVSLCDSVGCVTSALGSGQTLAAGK
Assay: fusion peptide mixed with retinal extract, anti-GST immunoprecipitation, western blot with usherin-specific antibodies

| binding | Substance |
| --- | --- |
| no binding | fusion peptide comprising the LE domain of usherin (GST fusion) (murine) |
| no binding | fusion peptide comprising the fibronectin type III domain of usherin (GST fusion) (murine) |

From US20020098516A1
